According to patent publication US20040213780:
Where cells or extracts were used, other partners may take part.

Sequences of proteins named here, by UniProt entry; tags and fusion partners are left off. Residues count along the entry.
UniProt Q01714, 2-786: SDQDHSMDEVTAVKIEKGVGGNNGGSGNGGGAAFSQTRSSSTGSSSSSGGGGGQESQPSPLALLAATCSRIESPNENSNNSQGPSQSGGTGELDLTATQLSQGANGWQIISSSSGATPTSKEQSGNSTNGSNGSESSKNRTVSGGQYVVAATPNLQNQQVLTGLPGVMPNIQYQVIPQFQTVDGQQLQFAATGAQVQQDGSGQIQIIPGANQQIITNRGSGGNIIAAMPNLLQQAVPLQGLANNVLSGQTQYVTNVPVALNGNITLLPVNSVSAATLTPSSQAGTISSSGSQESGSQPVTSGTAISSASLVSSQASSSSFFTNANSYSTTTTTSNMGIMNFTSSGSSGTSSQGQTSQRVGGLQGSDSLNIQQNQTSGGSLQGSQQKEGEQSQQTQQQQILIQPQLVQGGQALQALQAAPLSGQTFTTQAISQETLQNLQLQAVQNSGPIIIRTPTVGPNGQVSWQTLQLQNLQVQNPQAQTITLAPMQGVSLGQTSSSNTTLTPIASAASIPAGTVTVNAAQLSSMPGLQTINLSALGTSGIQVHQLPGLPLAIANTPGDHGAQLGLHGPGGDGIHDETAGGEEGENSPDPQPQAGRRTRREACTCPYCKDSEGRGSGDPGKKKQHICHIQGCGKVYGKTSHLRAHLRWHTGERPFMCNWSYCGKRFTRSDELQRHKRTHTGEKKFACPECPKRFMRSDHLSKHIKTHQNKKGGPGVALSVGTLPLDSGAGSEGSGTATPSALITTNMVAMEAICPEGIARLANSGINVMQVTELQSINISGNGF
UniProt P08047, 2-785: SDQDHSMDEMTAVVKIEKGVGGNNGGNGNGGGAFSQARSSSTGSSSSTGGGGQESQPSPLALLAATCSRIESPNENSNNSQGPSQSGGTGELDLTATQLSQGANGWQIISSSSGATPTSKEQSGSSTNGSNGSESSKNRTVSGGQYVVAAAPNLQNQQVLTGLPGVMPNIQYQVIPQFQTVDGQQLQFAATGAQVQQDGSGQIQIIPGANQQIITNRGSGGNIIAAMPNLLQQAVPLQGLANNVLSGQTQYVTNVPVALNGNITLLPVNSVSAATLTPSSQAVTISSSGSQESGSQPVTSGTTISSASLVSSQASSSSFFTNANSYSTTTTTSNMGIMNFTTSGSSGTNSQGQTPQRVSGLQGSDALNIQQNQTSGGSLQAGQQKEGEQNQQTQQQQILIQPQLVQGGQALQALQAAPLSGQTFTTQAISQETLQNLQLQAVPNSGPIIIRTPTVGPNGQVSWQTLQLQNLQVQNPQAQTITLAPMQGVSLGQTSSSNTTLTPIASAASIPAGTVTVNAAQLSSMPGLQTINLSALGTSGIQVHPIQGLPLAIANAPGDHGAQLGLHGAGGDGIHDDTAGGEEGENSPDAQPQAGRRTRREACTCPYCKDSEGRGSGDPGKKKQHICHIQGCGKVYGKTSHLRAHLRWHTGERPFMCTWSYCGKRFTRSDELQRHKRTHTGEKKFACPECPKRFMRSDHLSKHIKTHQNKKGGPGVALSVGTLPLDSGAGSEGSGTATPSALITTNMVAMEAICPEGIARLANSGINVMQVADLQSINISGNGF

How the values were obtained:
[1] = biological target: Sp1 (endogenous, striatal neuron nuclear extract) (Rattus norvegicus) (UniProt Q01714); experiment: EMSA; settings: nuclear extract of transfected primary striatal neurons; binding 55% lower with HttQ75 than HttQ17; 100-fold competitor used; protein in an extract; label: labeled (autoradiography)
[2] = biological target: Sp1 (endogenous, brain nuclear extract) (Homo sapiens) (UniProt P08047); experiment: EMSA; settings: caudate nuclear extract; supershifted with Sp1 antibody; binding decreased 39% in grade 1 and 48% in grade 4 HD caudate, unchanged in hippocampus; protein in an extract; label: labeled (autoradiography)

## CAGGGTGACCCCGCCCCCTCCTCC (double strand) [D2 dopamine receptor promoter Sp1 fragment]
[1]
  binding result: binds
[2]
  binding result: binds
